PubChem BioAssay AID1224829, NIAID – 2016
Assay: 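Genes needed for LPS-driven NF-kappaB p65 nuclear entry in mouse macrophages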 (follow-up of hits). Cell system: mouse RAW264.7 G9 macrophage reporter cells. Reagent: single siRNA against mouse genes, 100 nM. Time to read-out: 2 days of siRNA knock-down, then 40 min of LPS before fixing. Conditions: LPS (Salmonella minnesota R595) at 10 ng/ml. Read-out: 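High-content images after 40 min LPS exposure; GFP-p65 nucleus to surrounding ring signal ratio, normalised to plate median and non-targeting control wells, expressed as z-score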. Direction: p65 translocation z-score and gene median z-score, per vendor: higher = more nuclear NF-kappaB p65 after LPS. Hit rule: 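Active means the replicate-mean z-score lies beyond plus or minus 2, in either direction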. Calls: active = changed p65 translocation (either direction); inactive = no clear change.
This is an unselected part of about 3,800 reagents. 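Calls cover raised and lowered translocation; gene median uses one vendor's three siRNAs; qiagen siRNAs acted more weakly than ambion siRNAs.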 Reagents against one gene are numbered here.

Gene | siRNA no. | siRNA vendor or control pool | p65 translocation z-score, replicate mean | p65 translocation z-score, replicate 1 | p65 translocation z-score, replicate 2 | gene median z-score, per vendor | activity call
Ndufaf4 | 1 | ambion single siRNA | -2.42 | -3.27 | -1.57 | -3.12 | active
Ndufaf4 | 2 | ambion single siRNA | -0.446 | 2.09 | -2.98 | -3.12 | inactive
Ndufaf4 | 3 | ambion single siRNA | -7.16 | -5.24 | -9.09 | -3.12 | active
Ndufaf4 | 4 | qiagen single siRNA | 1.9 | 1.31 | 2.49 | 0.56 | inactive
Ndufaf4 | 5 | qiagen single siRNA | 1.41 | -0.191 | 3.01 | 0.56 | inactive
Ndufaf4 | 6 | qiagen single siRNA | -2.73 | -3.32 | -2.15 | 0.56 | active
Rai2 | 1 | ambion single siRNA | 1.03 | 1.59 | 0.478 | 1.6 | inactive
Rai2 | 2 | ambion single siRNA | 2.44 | 3.22 | 1.67 | 1.6 | active
Rai2 | 3 | ambion single siRNA | 0.108 | 1.61 | -1.39 | 1.6 | inactive
Rai2 | 4 | qiagen single siRNA | 0.0403 | 0.555 | -0.474 | -0.000538 | inactive
Rai2 | 5 | qiagen single siRNA | 1.25 | 0.473 | 2.04 | -0.000538 | inactive
Rai2 | 6 | qiagen single siRNA | -1.53 | -1.34 | -1.72 | -0.000538 | inactive
Ulk4 | 1 | ambion single siRNA | -1.97 | -2.09 | -1.84 | -1.99 | inactive
Ulk4 | 2 | ambion single siRNA | -1.72 | -1.56 | -1.89 | -1.99 | inactive
Ulk4 | 3 | ambion single siRNA | -5.02 | -5.48 | -4.56 | -1.99 | active
Ulk4 | 4 | qiagen single siRNA | 2.42 | 2.03 | 2.81 | -0.408 | active
Ulk4 | 5 | qiagen single siRNA | -1.86 | -1.71 | -2 | -0.408 | inactive
Ulk4 | 6 | qiagen single siRNA | -0.408 | -0.656 | -0.16 | -0.408 | inactive
Kmt2a | 1 | qiagen single siRNA | -2.47 | -0.795 | -4.15 | -0.615 | active
Kmt2a | 2 | qiagen single siRNA | 1.02 | -0.436 | 2.47 | -0.615 | inactive
Kmt2a | 3 | qiagen single siRNA | -0.627 | -0.206 | -1.05 | -0.615 | inactive
Lyn | 1 | ambion single siRNA | -2.58 | -3.27 | -1.88 | -0.791 | active
Lyn | 2 | ambion single siRNA | 0.862 | 1.53 | 0.198 | -0.791 | inactive
Lyn | 3 | ambion single siRNA | -0.791 | -1.02 | -0.557 | -0.791 | inactive
Lyn | 4 | qiagen single siRNA | -1.45 | -1.27 | -1.63 | -1.45 | inactive
Lyn | 5 | qiagen single siRNA | 0.601 | -0.0375 | 1.24 | -1.45 | inactive
Lyn | 6 | qiagen single siRNA | -3.41 | -2.18 | -4.63 | -1.45 | active
Gatm | 1 | ambion single siRNA | -0.872 | 0.455 | -2.2 | 0.241 | inactive
Gatm | 2 | ambion single siRNA | 0.391 | 0.241 | 0.541 | 0.241 | inactive
Gatm | 3 | ambion single siRNA | -5.37 | -5.37 | – | 0.241 | active
Gatm | 4 | qiagen single siRNA | 1.07 | 1.58 | 0.57 | 0.66 | inactive
Gatm | 5 | qiagen single siRNA | 0.25 | 0.164 | 0.336 | 0.66 | inactive
Gatm | 6 | qiagen single siRNA | 1.17 | 0.751 | 1.59 | 0.66 | inactive
Optn | 1 | ambion single siRNA | -1.45 | -1.09 | -1.81 | -1.45 | inactive
Optn | 2 | ambion single siRNA | -7.2 | -8.16 | -6.23 | -1.45 | active
Optn | 3 | ambion single siRNA | 0.734 | 1.09 | 0.377 | -1.45 | inactive
Optn | 4 | qiagen single siRNA | 0.725 | -0.773 | 2.22 | -1.2 | inactive
Optn | 5 | qiagen single siRNA | -1.15 | -1.62 | -0.669 | -1.2 | inactive
Optn | 6 | qiagen single siRNA | -2.82 | -1.69 | -3.96 | -1.2 | active
Chaf1a | 1 | ambion single siRNA | -0.598 | 0.382 | -1.58 | 0.881 | inactive
Chaf1a | 2 | ambion single siRNA | 1.94 | 2.5 | 1.38 | 0.881 | inactive
Chaf1a | 3 | ambion single siRNA | -0.195 | 1.64 | -2.03 | 0.881 | inactive
Chaf1a | 4 | qiagen single siRNA | 1.45 | 1.63 | 1.26 | 0.993 | inactive
Chaf1a | 5 | qiagen single siRNA | 0.356 | -0.485 | 1.2 | 0.993 | inactive
Chaf1a | 6 | qiagen single siRNA | 0.315 | -0.158 | 0.789 | 0.993 | inactive
Hs3st1 | 1 | ambion single siRNA | 0.653 | 1.35 | -0.0455 | -0.234 | inactive
Hs3st1 | 2 | ambion single siRNA | -1.04 | -0.234 | -1.84 | -0.234 | inactive
Hs3st1 | 3 | ambion single siRNA | -3.53 | -3.53 | – | -0.234 | active
Hs3st1 | 4 | qiagen single siRNA | 1.23 | 0.511 | 1.95 | 0.093 | inactive
Hs3st1 | 5 | qiagen single siRNA | 0.247 | -0.325 | 0.82 | 0.093 | inactive
Hs3st1 | 6 | qiagen single siRNA | -3.51 | -5.35 | -1.67 | 0.093 | active
